# Test results: the supplement of paper PMC5407854, “Inhibitor of ppGalNAc-T3-mediated O-glycosylation blocks cancer cell invasiveness and lowers FGF23 levels” (eLife, 2017)
# Some of the results follow. Most values lie at the level of the controls, where differences are scatter.
# Test system: ppGalNAc-T3 sensor
# Assay: T3 sensor activation Q score (MG/GFP ratio z-score vs DMSO controls) (SD units); higher = more sensor activation (inhibition of ppGalNAc-T3 glycosylation)
# Details: HEK293 sensor cells; 10 µM; 6 h
# Method: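 Cells were treated with compound at 10 uM for 6 h, then MG/GFP ratio was read by flow cytometry (10,000 cells per well, duplicate wells). Q = (R - R_neg)/SD_neg relative to DMSO vehicle controls; the signal rises when the glycosyltransferase is inhibited.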
row,Structure (SMILES),T3 sensor activation Q score
1,CCN1CCN(Cc2ccc(OC)c(C)c2)CC1,-0.355
2,CCN1CCN(Cc2cc(Br)ccc2OC)CC1,0.3
3,COc1ccc(N2CCN(Cc3cccc(F)c3)CC2)cc1,0.27
4,CCc1ccc(CN2CCN(CC)CC2)cc1,0.35
5,CN1CCN(Cc2ccccc2)CC1,0.53
6,CCOc1ccccc1CN1CCN(c2ccccc2C)CC1,0.23
7,CCOc1ccccc1N1CCN(Cc2ccccc2Cl)CC1,0.345
8,COc1ccc(OC)c(CN2CCN(c3ccccc3C)CC2)c1,0.285
9,COc1ccc(CN2CCN(c3ccccc3)CC2)cc1O,-0.14
10,CN1CCN(Cc2cc(F)ccc2F)CC1,0.38
11,Cc1ccc(C)c(CN2CCN(c3ccccc3)CC2)c1,-0.175
12,CCc1ccc(CN2CCN(c3ccccc3OC)CC2)cc1,0.8
13,Cc1ccc(CNC(C)Cc2ccccc2)o1 (centres undefined),-0.37
14,NCCc1nc2ccccc2[nH]1,1.05
15,COc1ccc(CN2CCN(c3ccccc3)CC2)cc1C,-0.495
16,COc1ccc(CN2CCN(c3cccc(C)c3C)CC2)cc1C,-0.105
17,CCOc1ccccc1N1CCN(Cc2ccccc2)CC1,-0.1
18,Fc1ccccc1N1CCN(Cc2cccc(Cl)c2)CC1,0.09
19,COc1ccc(CNCCc2ccccc2)cc1C,-0.14
20,COc1cccc(CN2CCN(c3ccc(F)cc3)CC2)c1,-0.215

row,Structure (SMILES),T3 sensor activation Q score
1,Fc1ccccc1N1CCN(Cc2ccccc2Cl)CC1,0.295
2,C/C(=C\c1ccc(Cl)cc1)[N+](=O)[O-],-0.575
3,Fc1ccc(CN2CCN(c3cccc(Cl)c3)CC2)cc1,-0.48
4,COc1ccccc1N1CCN(Cc2ccc(Br)cc2)CC1,0.02
5,COc1ccccc1CN1CCN(c2ccccc2Cl)CC1,1.25
6,CCOc1ccccc1CN1CCN(c2ccccc2)CC1,0.15
7,OCCN1CCN(Cc2ccccc2F)CC1,0.705
8,CN1CCN(Cc2ccc(N(C)C)cc2)CC1,0.545
9,CN(C)CCC(=O)c1ccccc1,2.7
10,CN1CCN(Cc2ccc(F)cc2)CC1,-0.15
11,COc1ccccc1N1CCN(Cc2ccc(F)c(F)c2)CC1,-0.215
12,CCOc1ccccc1CN1CCN(C)CC1,-0.41
13,CCN1CCN(Cc2ccc(OC)c(OC)c2OC)CC1,0
14,CCOc1ccccc1N1CCN(Cc2ccc(F)cc2F)CC1,0.595
15,COc1ccc(CN2CCN(c3ccc(Cl)cc3)CC2)cc1OC,0.17
16,CCOc1ccc(C(CN)CC(=O)O)cc1 (centres undefined),0.845
17,CCOc1ccc(/C=C/[N+](=O)[O-])cc1,-1.23
18,COc1cccc(CN2CCN(c3ccccc3OC)CC2)c1,-0.75
19,Cc1cccc(N2CCN(Cc3ccccc3)CC2)c1C,1.1

# Grouped by structure, the entries above containing a nitro group on carbon (two)
row,Structure (SMILES),T3 sensor activation Q score
2,C/C(=C\c1ccc(Cl)cc1)[N+](=O)[O-],-0.575
17,CCOc1ccc(/C=C/[N+](=O)[O-])cc1,-1.23
